{"source": "patent US20170080049A1", "about": "“MEDICINE AGAINST GROWTH FAILURE INDUCED BY ADMINISTRATION OF STEROID” (DAIICHI SANKYO COMPANY, LIMITED, priority 2014, published 2017)", "key": {"[1]": {"system": "steroid-induced growth failure, male Crlj:WI (Wistar) rat", "experiment": "Simultaneous combined administration test of various steroids and CNP derivative (A) in rats (Example 5)", "type": "in vivo", "procedure": "0.3 mg/mL solution of dexamethasone (dexamethasone injection “KS”, available from Kyoritsuseiyaku Corporation diluted with saline), prednisolone succinate suspended in 0.1% polysorbate-containing brine (available from Wako Pure Chemical Industries, Ltd., concentration of 5 mg/mL as prednisolone), or betamethasone dipropionate suspended in 0.1% polysorbate-containing brine (available from Wako Pure Chemical Industries, Ltd., concentration of 0.3 mg/mL as betamethasone) was administered to the hypoderm of the back of a 4-week-old male Crlj:WI (Wistar) rat (ten animals for each set of substances) in a volume of 1 mL/kg once a day for 28 days. No substance was administered to the control group (5 animals, Group 1). At the same time, for five of ten animals in each set (Group 2, Group 4, Group 6) a medium (0.03 mol/L acetate buffer (pH 4.0)/1% benzyl alcohol/10% sucrose) and for the remaining five animals (Group 3, Group 5, Group 7) the medium and a 1 mg/mL solution of CNP derivative (A) were administered in combination in the hypoderm of the back in a volume of 1 mL/kg once a day for 28 days. After measuring the body weight, the body length and the tail length under isoflurane anesthesia on the day after the final day of administration, blood was collected from the abdominal aorta and the animal was caused to die, the right femur was extracted and the femur length was measured."}, "[2]": {"system": "rat growth failure induced by dexamethasone", "experiment": "Action comparing study between CNP derivative (A) and human growth hormone on rat growth failure induced by dexamethasone (Example 6)", "type": "in vivo", "conditions": "combined with dexamethasone, 28 days", "procedure": "Osmotic pumps (MINI-OSMOTIC PUMP Model 2004, available from DURECT CORPORATION, flow rate: 0.25 μL/hr, for 28 days) were charged with a 0.67 mg/mL solution of dexamethasone (dexamethasone injection “KS”, available from Kyoritsuseiyaku Corporation), and one osmotic pump was embedded in the hypoderm of the back of each 4-week-old male Crlj:WI (Wistar) rat (5 animals/group, Group 2 to Group 4, total of 15 animals). For Group 3, a 1 mg/mL solution of CNP derivative (A) (medium: 0.03 mol/L acetate buffer (pH 4.0)/1% benzyl alcohol/10% sucrose), and for Group 4, a 1 mg/mL solution of human-type growth hormone preparation (somatropin BS subcutaneous injection 10 mg “SANDOZ”) diluted with a phosphate buffer was administered to the hypoderm of the back of five rats, respectively, in a volume of 2 mL/kg once a day for 28 days. No substance was administered to the normal control group (5 animals, Group 1). On the final day, after measuring the body weight, the body length and the tail length, the blood was collected from the abdominal aorta and the animal was caused to die under isoflurane anesthesia, the left femur was extracted and the bone length was measured, and then a histopathological specimen of the epiphyseal region was prepared."}}, "note": "At least one peptide structure holds a part that was inferred or is arguable (an end, a ring closure or a residue). Positions of bridges follow the written chain, without caps; N, C: chain ends. Residues, ends and D or L forms follow the SMILES beside them.", "data": [{"smiles": "CC[C@H](C)[C@@H]1NC(=O)[C@H](CCCNC(=N)N)NC(=O)[C@H](CC(=O)O)NC(=O)[C@H](CC(C)C)NC(=O)[C@H](CCCCN)NC(=O)[C@H](CC(C)C)NC(=O)CNC(=O)[C@H](Cc2ccccc2)NC(=O)[C@@H](NC(=O)CNC(=O)[C@H](CCCCN)NC(=O)[C@H](CO)NC(=O)[C@H](CC(C)C)NC(=O)CN)CSSC[C@@H](C(=O)N[C@H](C(=O)N[C@@H](CCC(N)=O)C(=O)N[C@@H](CCC(N)=O)C(=O)N[C@@H](CCCNC(=N)N)C(=O)N[C@@H](CCCCN)C(=O)N[C@@H](CC(=O)O)C(=O)N[C@@H](CO)C(=O)N[C@@H](CCCCN)C(=O)N[C@@H](CCCCN)C(=O)N2CCC[C@H]2C(=O)N2CCC[C@H]2C(=O)N[C@@H](C)C(=O)N[C@@H](CCCCN)C(=O)N[C@@H](CC(C)C)C(=O)N[C@@H](CCC(N)=O)C(=O)N2CCC[C@H]2C(=O)N[C@@H](CCCNC(=N)N)C(=O)O)C(C)C)NC(=O)CNC(=O)[C@H](CC(C)C)NC(=O)CNC(=O)[C@H](CO)NC(=O)[C@H](CCSC)NC(=O)[C@H](CO)NC(=O)CNC1=O", "note": "[CNP derivative (A), CNP (1-22) Ghrelin (12-28, E17D, SEQ ID NO: 13)] (H-GLSKGCFGLKLDRIGSMSGLGCVQQRKDSKKPPAKLQPR-OH; disulfide 6-22)", "values": [{"measurement": "body length, tail length and femur vs non-administered group of CNP derivative (A) (in words)", "setting": "[1]; CNP derivative (A) 1 mg/kg s.c. repeated, simultaneously with dexamethasone, prednisolone or betamethasone, p<0.05 or 0.01", "value": "significant elongation"}, {"measurement": "Body length at dissection", "setting": "[1]; betamethasone 0.3 mg/mL, 1 mL/kg s.c. once a day 28 days, + medium or + CNP derivative (A) 1 mg/kg, n=5", "value": "230 ± 4", "unit": "mm"}, {"measurement": "Body weight at dissection", "setting": "[1]; betamethasone dipropionate (0.3 mg/mL as betamethasone), 1 mL/kg s.c. once a day 28 days, + medium or + CNP derivative (A) 1 mg/kg, 4-week-old male Wistar rat, n=5", "value": "331 ± 20", "unit": "g"}, {"measurement": "Body length at dissection", "setting": "[1]; dexamethasone 0.3 mg/mL, 1 mL/kg s.c. once a day 28 days, + medium or + CNP derivative (A) 1 mg/kg, n=5", "value": "189 ± 3", "unit": "mm"}, {"measurement": "elongation of the body length and the tail length vs dexamethasone-only administration group (in words)", "setting": "[2]", "value": "significantly ameliorated"}, {"measurement": "left femur length on the final day vs dexamethasone-only administration group (in words)", "setting": "[2]", "value": "significantly longer"}]}]}
